No constants are given. Whether binding was seen depends on the method and setting. Some entries that bind do so weakly or less than the wild type.
Target: T1, GDF11 (UniProt O95390 299-407)
T1 sequence (looked up): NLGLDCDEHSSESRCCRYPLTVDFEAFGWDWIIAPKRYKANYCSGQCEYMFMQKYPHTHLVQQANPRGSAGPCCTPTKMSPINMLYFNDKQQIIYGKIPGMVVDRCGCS
Assay: Biacore; ActRIIB-Fc captured by anti-hFc antibody, ligand injected
Protocol: Binding of certain ActRIIB-Fc proteins and GDF Traps to ligands was tested in a BiaCore™ assay.
The ActRIIB-Fc variants or wild-type protein were captured onto the system using an anti-hFc antibody. Ligands were injected and flowed over the captured receptor proteins.

- binding: binds
B1: ActRIIB(A24N 20-134)-hFc (Fc fusion)
chain: GRGENETRECIYYNANWELERTNQSGLERCEGEQDKRLHCYASWRNSSGTIELVKKGCWLDDFNCYDRQECVATEENPQVYFCCCEGNFCNERFTHLPEAGGPEVTYEPPPTAPTGGG
notes: also called the A24N variant; not shown: human Fc domain (hFc)

— patent publication US20100068215A1 (published 2010)
